This note sets out measurements from paper PMC5975438.

Sequences of proteins named here, by UniProt entry; tags and fusion partners are left off. A change or cut given only in a name is not applied to a line headed by its entry. Residues count along the entry.
UniProt Q63155, residues 26-1445: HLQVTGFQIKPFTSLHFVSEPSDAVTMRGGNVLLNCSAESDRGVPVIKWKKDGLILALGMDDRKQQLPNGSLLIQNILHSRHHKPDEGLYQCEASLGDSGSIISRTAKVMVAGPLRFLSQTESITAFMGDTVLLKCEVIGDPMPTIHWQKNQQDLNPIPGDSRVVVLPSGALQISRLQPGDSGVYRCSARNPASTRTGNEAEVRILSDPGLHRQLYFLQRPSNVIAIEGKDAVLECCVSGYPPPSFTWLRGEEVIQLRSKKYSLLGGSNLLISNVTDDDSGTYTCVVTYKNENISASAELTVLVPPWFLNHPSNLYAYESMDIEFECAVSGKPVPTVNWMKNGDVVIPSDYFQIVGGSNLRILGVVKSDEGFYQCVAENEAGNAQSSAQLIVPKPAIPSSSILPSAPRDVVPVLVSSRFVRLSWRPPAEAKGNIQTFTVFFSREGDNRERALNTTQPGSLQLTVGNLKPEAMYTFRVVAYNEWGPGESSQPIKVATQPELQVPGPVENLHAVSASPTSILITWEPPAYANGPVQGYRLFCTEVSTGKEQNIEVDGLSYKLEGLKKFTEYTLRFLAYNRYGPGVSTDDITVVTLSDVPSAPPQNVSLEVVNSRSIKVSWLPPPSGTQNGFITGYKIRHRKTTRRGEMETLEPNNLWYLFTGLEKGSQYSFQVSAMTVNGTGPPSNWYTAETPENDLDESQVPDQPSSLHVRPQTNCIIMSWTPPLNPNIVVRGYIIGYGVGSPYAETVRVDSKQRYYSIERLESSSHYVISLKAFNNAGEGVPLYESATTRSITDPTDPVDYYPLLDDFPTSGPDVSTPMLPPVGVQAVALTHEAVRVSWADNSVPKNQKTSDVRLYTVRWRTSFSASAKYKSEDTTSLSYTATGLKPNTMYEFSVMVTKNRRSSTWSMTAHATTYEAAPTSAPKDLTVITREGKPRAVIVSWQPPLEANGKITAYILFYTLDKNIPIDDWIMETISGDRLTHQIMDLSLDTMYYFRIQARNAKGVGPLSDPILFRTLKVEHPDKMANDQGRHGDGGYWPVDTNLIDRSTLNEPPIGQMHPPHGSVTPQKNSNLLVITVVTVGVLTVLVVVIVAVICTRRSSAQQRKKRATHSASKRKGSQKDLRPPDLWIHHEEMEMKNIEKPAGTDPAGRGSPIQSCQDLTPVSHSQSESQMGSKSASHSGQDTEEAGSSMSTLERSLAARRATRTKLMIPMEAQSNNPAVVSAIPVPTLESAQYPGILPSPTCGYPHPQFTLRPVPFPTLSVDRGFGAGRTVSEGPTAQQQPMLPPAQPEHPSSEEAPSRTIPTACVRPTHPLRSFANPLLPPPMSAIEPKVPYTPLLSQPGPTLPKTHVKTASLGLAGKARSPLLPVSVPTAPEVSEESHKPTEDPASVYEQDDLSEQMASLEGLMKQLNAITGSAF

For this experiment, the target named is Netrin-1 receptor DCC (Deleted in Colorectal Cancer) (rat (endogenous in rat cartilage)) (UniProt Q63155). Briefly: co-IP; rat cartilage homogenates (400 ug protein) of sham and OA (ACLT) rats; anti-DCC antibody 1 h, protein-G agarose at 4 °C for 12 h; immunoblot with VEGF antibody; IgG as negative control.

These are yes or no findings as the source states them, for the method shown. In cells and extracts the contact can be indirect. Some binding calls cover weakened binding; strength is not graded here.

B1: Vascular endothelial growth factor (ligand, UniProt P16612 27-214)
chain: APTTEGEQKAHEVVKFMDVYQRSYCRPIETLVDIFQEYPDEIEYIFKPSCVPLMRCAGCCNDEALECVPTSESNVTMQIMRIKPHQSQHIGEMSFLQHSRCECRPKKDRTKPEKKSVRGKGKGQKRKRKKSRFKSWSVHCEPCSERRKHLFVQDPQTCKCSCKNTDSRCKARQLELNERTCRCDKPRR
B1: the binding result is recorded as “binds”.
